Measured values taken from article PMC11384114.
For at least one entry, the source does not settle the construct or the ends of the probe. Negatives hold for the conditions tested.

test system: MBP-SlPIF4 (Solanum lycopersicum (tomato)); assay: EMSA; conditions: LightShift Chemiluminescent EMSA kit (Thermo 20148); unlabeled competitor 100x, 300x, 500x; pH and temperature not stated; recombinant protein; protein details: MBP; label: biotin 3' end

Binding result, no binding:
AACTTTAATTTATGACCGACAAAAACTCTTT (double strand) [SlCCD7-mut]
AGTTTTCGAATGTATCCCATGTTA (double strand) [SlMAX1-mut]
TTTAACGTTAATTTTTTTTTTTACATACTTAAAATCAC (double strand) [SlCCD8-mut]
